Measured values reported in the supplement of paper PMC4862054.
Small differences around the control level are noise.

Key:
Assay in all cases: normalised response (% of control), CellTox Green; higher = less cell death (100 = DMSO, 0 = benzethonium chloride kill control)
Conditions in all cases: incubation time: 72 h
[1] = test system: BT-474
Method: (§1)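 DSRT, 72 h incubation, CellTox Green / CellTiter-Glo readout. Signal is normalised to DMSO and benzethonium chloride controls. Value is the normalised response at dose 2.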

[2] = test system: BT-549
Method: as §1

[3] = test system: CAL-120
Method: as §1

[4] = test system: CAL-148
Method: as §1

[5] = test system: CAL-51
Method: as §1

[6] = test system: CAL-85-1
Method: as §1

[7] = test system: DU-4475
Method: as §1

[8] = test system: HCC1143
Method: as §1

[9] = test system: HCC1599
Method: as §1

[10] = test system: HCC1937
Method: as §1

[11] = test system: HDQ-P1
Method: as §1

[12] = test system: Hs578T
Method: as §1

[13] = test system: MCF-10A
Method: as §1

[14] = test system: MDA-MB-231
Method: as §1

[15] = test system: MDA-MB-436
Method: as §1

[16] = test system: MDA-MB-453
Method: as §1

[17] = test system: MDA-MB-468
Method: as §1

[18] = test system: MFM-223
Method: as §1

[19] = test system: BT-474; remark: listed apart in the source
Method: (§2)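 DSRT, 72 h incubation, CellTox Green / CellTiter-Glo readout. Signal is normalised to DMSO and benzethonium chloride controls. Value is the normalised response at the lowest tested concentration.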

[20] = test system: BT-549; remark: listed apart in the source
Method: as §2

[21] = test system: CAL-120; remark: listed apart in the source
Method: as §2

[22] = test system: CAL-148; remark: listed apart in the source
Method: as §2

[23] = test system: CAL-51; remark: listed apart in the source
Method: as §2

[24] = test system: CAL-85-1; remark: listed apart in the source
Method: as §2

[25] = test system: DU-4475; remark: listed apart in the source
Method: as §2

[26] = test system: HCC1143; remark: listed apart in the source
Method: as §2

[27] = test system: HCC1599; remark: listed apart in the source
Method: as §2

[28] = test system: HCC1937; remark: listed apart in the source
Method: as §2

[29] = test system: HDQ-P1; remark: listed apart in the source
Method: as §2

[30] = test system: Hs578T; remark: listed apart in the source
Method: as §2

[31] = test system: MCF-10A; remark: listed apart in the source
Method: as §2

[32] = test system: MDA-MB-231; remark: listed apart in the source
Method: as §2

[33] = test system: MDA-MB-436; remark: listed apart in the source
Method: as §2

[34] = test system: MDA-MB-453; remark: listed apart in the source
Method: as §2

| SMILES | normalised response [1] | normalised response [2] | normalised response [3] | normalised response [4] | normalised response [5] | normalised response [6] | normalised response [7] | normalised response [8] | normalised response [9] | normalised response [10] | normalised response [11] | normalised response [12] | normalised response [13] | normalised response [14] | normalised response [15] | normalised response [16] | normalised response [17] | normalised response [18] | normalised response [19] | normalised response [20] | normalised response [21] | normalised response [22] | normalised response [23] | normalised response [24] | normalised response [25] | normalised response [26] | normalised response [27] | normalised response [28] | normalised response [29] | normalised response [30] | normalised response [31] | normalised response [32] | normalised response [33] | normalised response [34] |
| --- | --- | --- | --- | --- | --- | --- | --- | --- | --- | --- | --- | --- | --- | --- | --- | --- | --- | --- | --- | --- | --- | --- | --- | --- | --- | --- | --- | --- | --- | --- | --- | --- | --- | --- |
| COc1ccc(-c2ccc3c(N4CCOC[C@@H]4C)nc(N4CCOC[C@@H]4C)nc3n2)cc1CO [AZD8055] (10 nM) | 98% | 98.3% | 101% | 70.9% | 77.2% | 92.2% | 92.1% | 104% | 98% | 64% | 115% | 112% | 94.7% | 90.2% | 99.7% | 96.7% | 82.9% | 93.4% | – | – | – | – | – | – | – | – | – | – | – | – | – | – | – | – |
| NC(=O)c1ccc(I)c([N+](=O)[O-])c1 [Iniparib] (10 nM) | 97% | 93.2% | 99.6% | 64.7% | 52.7% | 101% | 89.7% | 102% | 89.5% | 68.4% | 84.2% | 95.4% | 100% | 66.1% | 83.4% | 98% | 108% | 97.8% | – | – | – | – | – | – | – | – | – | – | – | – | – | – | – | – |
| COc1ccc(-c2ccc3c(N4CCOC[C@@H]4C)nc(N4CCOC[C@@H]4C)nc3n2)cc1CO [AZD8055] (1 nM) | – | – | – | – | – | – | – | – | – | – | – | – | – | – | – | – | – | – | 95.8% | 102% | 98.6% | 100% | 120% | 98.3% | 96.7% | 85.1% | 86.5% | 106% | 92.3% | 106% | 97.8% | 103% | 77.8% | 104% |
| O=C1NC(=O)[C@@H](c2cn3c4c(cccc24)CCC3)[C@@H]1c1c[nH]c2ccccc12 [Tivantinib] (1 nM) | 91.1% | 86.2% | 98.6% | 104% | 91.5% | 102% | 98.7% | 99.9% | 97% | 89.3% | 117% | 110% | 84.2% | 82.2% | 97.6% | 99.2% | 91.4% | 88.3% | – | – | – | – | – | – | – | – | – | – | – | – | – | – | – | – |
